This assay has as its system RAW 264.7 cells, the multinuclear osteoclasts treated with RANKL. As to the kind of experiment: Osteoclast proliferation activity, drug in medium. It is filed as cell-based. The following applies: compared with the case not treated; 1 μM or 200 μM. How it is done: The experiment was performed by the same manner as described in Experimental Example <2-3> except that RAW 264.7 cells, the multinuclear osteoclasts treated with RANKL (Receptor Activation for Nuclear Factor κB Ligand), were used instead of MC3T3-E1 cells (MC3T3-E1 Subclone 4, ATCC CRL-2593, obtained from ATCC), and the results are presented in FIG. 8.

With `NCCCC(O)(P(=O)(O)O)P(=O)(O)O` [Alendronate, reference compound], the proliferation of osteoclasts result is on record as “significantly inhibited”.

The record behind these values is patent publication US9889234B2, “Scaffold for hard tissue regeneration containing active ingredient for treating osteoporosis and preparing method thereof” (KOREA INSTITUTE OF MACHINERY AND MATERIALS, priority 2014, dated 2018).
